{
  "source": "patent US20090312274A1",
  "about": "“Nyasol and Analogs Thereof for the Treatment of Estrogen Receptor Beta-Mediated Diseases” (Bionovo, Inc., priority 2008, published 2009)",
  "test_system": "MCF-7 breast cancer cells",
  "assay": "MCF-7 kidney capsule xenografts in nude mice",
  "design": "dose or concentration left out as unconfirmed",
  "conditions": "28 days",
  "note": "At least one compound was matched to its structure with a doubt left.",
  "data": [
    {"smiles": "C[C@]12CC[C@@H]3c4ccc(O)cc4CC[C@H]3[C@@H]1CC[C@@H]2O", "note": "[E2, estradiol]", "values": [
      {"measurement": "growth of MCF-7 kidney capsule xenografts compared to control", "value": "agonizes tumor xenograft growth"}
    ]}
  ]
}
